Measured values as given in the supplement of paper PMC12067093, “Discovery and optimisation of a covalent ligand for TRIM25 and its application to targeted protein ubiquitination” (Chemical Science, 2025).
This is one part of the list.

Protein sequences, listed by entry. Tags and fused reporters are not part of them. Lines headed by an entry give the natural chain unless they say otherwise; changes in a name come on top.
UniProt O94906: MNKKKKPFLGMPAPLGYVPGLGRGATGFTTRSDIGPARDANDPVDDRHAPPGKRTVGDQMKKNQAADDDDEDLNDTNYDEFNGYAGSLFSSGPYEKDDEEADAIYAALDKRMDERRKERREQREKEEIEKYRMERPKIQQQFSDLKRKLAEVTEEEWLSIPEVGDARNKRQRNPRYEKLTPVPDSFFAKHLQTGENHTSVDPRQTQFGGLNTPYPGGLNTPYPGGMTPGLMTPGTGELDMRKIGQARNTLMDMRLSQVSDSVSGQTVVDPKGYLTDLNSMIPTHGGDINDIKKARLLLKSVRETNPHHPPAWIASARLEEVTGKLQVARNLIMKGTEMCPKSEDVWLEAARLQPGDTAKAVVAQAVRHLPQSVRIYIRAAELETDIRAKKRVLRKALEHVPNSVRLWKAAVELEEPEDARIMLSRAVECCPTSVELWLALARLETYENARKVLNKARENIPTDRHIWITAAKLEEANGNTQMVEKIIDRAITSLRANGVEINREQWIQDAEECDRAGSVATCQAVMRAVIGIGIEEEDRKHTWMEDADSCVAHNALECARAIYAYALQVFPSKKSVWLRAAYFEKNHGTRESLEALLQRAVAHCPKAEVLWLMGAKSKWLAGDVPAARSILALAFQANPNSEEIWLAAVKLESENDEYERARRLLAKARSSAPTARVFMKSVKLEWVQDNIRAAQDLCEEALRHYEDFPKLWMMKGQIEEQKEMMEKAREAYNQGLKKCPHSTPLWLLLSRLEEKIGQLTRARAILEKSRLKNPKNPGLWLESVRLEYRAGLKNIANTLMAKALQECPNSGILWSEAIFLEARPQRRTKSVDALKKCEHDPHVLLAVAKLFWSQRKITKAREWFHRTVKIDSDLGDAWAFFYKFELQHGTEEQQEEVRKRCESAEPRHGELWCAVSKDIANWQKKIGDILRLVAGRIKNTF
UniProt P78527, whole entry, looked up: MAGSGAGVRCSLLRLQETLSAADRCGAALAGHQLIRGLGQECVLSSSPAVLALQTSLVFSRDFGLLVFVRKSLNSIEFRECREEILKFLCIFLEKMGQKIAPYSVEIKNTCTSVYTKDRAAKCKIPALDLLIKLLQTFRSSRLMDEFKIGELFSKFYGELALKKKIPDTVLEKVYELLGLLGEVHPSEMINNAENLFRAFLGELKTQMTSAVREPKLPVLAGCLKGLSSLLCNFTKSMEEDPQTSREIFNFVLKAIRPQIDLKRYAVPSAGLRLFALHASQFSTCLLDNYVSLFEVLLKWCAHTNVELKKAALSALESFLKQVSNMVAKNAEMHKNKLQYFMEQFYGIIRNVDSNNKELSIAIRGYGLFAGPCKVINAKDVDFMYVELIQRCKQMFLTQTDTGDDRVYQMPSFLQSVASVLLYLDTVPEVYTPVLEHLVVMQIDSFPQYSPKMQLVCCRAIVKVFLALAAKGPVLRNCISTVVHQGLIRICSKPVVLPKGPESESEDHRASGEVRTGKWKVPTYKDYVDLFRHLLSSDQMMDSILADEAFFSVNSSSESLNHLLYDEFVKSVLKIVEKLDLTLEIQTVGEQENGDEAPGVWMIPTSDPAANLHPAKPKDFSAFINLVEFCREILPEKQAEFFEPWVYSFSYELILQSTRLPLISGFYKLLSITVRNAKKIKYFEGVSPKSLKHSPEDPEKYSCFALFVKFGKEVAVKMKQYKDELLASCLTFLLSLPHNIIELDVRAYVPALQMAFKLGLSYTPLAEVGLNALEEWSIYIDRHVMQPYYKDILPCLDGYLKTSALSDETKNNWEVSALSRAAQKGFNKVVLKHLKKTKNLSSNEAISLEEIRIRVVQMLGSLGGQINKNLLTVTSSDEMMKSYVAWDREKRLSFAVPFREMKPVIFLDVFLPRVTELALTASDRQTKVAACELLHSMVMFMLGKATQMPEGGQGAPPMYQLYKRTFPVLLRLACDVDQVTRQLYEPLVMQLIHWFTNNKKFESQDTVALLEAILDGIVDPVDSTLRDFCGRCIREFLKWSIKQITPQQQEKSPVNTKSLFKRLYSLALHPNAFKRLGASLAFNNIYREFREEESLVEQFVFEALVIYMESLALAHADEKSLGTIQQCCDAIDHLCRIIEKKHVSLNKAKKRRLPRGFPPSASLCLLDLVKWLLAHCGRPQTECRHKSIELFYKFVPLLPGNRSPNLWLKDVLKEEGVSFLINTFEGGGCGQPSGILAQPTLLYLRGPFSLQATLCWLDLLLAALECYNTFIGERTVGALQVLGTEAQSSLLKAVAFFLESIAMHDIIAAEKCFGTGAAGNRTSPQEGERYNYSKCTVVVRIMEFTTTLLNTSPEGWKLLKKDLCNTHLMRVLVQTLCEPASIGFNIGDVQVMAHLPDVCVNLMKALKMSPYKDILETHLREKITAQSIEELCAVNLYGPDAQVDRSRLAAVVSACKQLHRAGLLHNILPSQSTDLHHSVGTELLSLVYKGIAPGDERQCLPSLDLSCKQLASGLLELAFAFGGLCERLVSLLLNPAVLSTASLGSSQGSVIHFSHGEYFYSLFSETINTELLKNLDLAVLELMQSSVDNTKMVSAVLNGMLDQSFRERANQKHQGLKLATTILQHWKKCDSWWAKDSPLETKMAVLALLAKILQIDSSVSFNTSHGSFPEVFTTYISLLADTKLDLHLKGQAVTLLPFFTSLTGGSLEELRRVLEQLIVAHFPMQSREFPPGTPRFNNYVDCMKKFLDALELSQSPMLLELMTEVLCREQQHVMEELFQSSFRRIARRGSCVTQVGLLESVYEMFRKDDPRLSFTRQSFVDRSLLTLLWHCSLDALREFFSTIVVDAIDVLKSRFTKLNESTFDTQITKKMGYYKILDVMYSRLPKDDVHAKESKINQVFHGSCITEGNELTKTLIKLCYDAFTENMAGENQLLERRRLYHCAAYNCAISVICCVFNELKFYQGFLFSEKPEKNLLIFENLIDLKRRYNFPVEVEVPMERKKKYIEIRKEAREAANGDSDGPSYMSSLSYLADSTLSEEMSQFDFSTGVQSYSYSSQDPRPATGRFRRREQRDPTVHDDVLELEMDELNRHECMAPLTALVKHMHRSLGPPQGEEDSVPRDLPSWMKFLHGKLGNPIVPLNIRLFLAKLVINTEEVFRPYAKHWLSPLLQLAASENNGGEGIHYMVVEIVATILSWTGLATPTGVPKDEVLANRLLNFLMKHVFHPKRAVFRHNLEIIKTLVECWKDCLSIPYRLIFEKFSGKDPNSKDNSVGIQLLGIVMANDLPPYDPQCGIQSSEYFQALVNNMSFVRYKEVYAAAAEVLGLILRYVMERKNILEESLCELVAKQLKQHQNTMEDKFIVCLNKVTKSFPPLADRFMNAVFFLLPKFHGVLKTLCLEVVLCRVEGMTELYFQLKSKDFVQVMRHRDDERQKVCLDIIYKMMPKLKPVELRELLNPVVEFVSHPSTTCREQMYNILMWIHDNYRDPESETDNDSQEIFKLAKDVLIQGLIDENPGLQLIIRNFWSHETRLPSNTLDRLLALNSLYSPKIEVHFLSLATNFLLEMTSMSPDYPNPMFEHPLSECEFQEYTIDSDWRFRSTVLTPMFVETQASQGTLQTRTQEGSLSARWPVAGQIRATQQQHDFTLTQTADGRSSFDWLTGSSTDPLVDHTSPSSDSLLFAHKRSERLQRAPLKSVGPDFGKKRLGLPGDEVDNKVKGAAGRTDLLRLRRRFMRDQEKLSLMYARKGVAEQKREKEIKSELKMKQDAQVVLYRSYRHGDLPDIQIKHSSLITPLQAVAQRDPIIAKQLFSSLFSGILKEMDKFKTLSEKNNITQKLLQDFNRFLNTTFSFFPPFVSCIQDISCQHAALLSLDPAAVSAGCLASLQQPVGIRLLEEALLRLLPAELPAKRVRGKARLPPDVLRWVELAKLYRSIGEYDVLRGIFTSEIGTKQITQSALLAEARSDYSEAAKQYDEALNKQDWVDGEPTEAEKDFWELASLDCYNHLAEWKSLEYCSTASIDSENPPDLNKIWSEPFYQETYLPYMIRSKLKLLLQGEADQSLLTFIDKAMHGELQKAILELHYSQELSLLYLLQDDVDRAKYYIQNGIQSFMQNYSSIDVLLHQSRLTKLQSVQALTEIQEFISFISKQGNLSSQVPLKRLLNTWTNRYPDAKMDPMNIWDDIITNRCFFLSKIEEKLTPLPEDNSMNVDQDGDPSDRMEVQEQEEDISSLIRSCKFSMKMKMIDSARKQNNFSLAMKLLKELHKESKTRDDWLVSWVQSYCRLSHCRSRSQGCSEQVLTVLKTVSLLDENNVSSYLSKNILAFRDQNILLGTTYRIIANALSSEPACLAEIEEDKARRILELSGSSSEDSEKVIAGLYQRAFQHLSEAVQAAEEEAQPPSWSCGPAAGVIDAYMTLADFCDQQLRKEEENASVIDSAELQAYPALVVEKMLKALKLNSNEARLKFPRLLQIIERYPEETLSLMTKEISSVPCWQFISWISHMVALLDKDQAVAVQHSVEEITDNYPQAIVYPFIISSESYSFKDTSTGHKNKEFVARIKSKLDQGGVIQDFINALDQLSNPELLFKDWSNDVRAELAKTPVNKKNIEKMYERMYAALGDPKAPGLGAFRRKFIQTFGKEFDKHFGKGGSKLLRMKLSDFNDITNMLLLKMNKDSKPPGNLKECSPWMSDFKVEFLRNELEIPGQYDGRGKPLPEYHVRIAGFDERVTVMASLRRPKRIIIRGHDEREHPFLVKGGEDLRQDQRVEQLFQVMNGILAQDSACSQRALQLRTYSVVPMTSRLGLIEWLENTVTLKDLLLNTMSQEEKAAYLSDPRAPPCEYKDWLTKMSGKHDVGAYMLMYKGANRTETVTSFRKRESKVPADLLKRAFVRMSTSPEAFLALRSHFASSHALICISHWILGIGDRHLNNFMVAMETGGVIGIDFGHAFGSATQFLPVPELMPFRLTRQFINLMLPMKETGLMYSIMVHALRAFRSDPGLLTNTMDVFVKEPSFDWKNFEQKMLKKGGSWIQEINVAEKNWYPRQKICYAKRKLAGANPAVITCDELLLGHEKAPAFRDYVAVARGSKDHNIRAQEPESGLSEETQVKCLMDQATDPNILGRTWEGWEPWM
UniProt Q13131: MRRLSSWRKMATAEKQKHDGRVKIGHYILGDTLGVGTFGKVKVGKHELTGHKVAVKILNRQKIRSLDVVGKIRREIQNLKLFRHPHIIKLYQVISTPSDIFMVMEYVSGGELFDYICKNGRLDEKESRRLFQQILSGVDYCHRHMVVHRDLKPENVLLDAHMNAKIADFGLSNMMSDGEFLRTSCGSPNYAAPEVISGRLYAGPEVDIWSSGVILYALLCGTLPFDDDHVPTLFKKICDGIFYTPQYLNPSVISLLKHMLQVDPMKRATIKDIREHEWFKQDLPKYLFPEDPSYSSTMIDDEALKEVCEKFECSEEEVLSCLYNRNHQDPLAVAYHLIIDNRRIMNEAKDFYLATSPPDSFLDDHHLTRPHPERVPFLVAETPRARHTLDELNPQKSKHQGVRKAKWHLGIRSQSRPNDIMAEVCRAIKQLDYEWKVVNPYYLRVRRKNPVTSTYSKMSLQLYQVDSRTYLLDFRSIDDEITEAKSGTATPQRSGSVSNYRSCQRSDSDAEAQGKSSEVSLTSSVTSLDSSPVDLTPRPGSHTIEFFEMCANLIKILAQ
UniProt Q9BZL6: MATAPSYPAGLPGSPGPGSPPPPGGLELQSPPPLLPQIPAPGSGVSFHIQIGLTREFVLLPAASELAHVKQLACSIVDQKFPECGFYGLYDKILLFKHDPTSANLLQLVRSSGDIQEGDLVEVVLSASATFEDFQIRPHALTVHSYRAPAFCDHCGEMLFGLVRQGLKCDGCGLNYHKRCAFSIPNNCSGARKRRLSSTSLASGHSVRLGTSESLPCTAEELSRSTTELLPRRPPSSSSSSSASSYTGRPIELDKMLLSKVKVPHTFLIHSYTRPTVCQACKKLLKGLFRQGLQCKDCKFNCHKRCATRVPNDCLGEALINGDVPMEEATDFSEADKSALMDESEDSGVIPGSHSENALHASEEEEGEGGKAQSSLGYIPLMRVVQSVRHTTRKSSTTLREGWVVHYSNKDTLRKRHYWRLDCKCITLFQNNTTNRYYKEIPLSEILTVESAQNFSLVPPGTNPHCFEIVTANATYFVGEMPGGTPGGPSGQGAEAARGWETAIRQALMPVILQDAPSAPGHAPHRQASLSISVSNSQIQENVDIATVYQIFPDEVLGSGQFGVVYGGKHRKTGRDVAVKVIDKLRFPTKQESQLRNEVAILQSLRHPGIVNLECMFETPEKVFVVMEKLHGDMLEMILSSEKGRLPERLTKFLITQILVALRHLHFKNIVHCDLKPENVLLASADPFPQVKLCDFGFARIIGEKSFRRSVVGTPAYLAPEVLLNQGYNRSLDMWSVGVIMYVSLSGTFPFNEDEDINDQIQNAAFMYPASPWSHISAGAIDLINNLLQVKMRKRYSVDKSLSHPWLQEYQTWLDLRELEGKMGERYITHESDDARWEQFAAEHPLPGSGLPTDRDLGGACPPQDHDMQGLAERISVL

Compound: Cc1cc(ccc1-c1ccccc1)C(=O)N1CCCN(CC1)C(=O)CCl [compound 10]
Assay: probe-labelled cysteine peptide fold change vs DMSO (competition) (log2 fold change); higher = less target engagement (more negative = stronger competition)
Conditions: THP-1, incubation time: 4 h
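Note: competitive profiling in live THP-1 cells: cysteine peptides tagged with an iodoacetamide desthiobiotin (IA-DTB) probe, intensity after compound treatment relative to DMSO-treated cells.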

Row | Target | probe-labelled cysteine peptide fold change (10 µM) | probe-labelled cysteine peptide fold change (50 µM)
1 | PRPF6_O94906_513_EQWIQDAEECDR (UniProt O94906) | -0.0378 | 0.191
2 | PRKCA_P17252_86_CHEFVTFSCPGADKGPDTDDPR (UniProt P17252) | -0.0149 | -0.343
3 | PRTN3_P24158_56+72_GNPGSHFCGGTLIHPSFVLTAAHCLR (UniProt P24158) | -0.204 | -0.45
4 | PRKDC_P78527_3281_TRDDWLVSWVQSYCR (UniProt P78527) | 0.0898 | 0.297
5 | PRKAA1_Q13131_238_ICDGIFYTPQYLNPSVISLLK (UniProt Q13131) | 0.08 | 0.158
6 | PRKD2_Q9BZL6_615_HPGIVNLECMFETPEK (UniProt Q9BZL6) | 0.0527 | 0.295
7 | PRMT7_Q9NVM4_639+640_RPGQSHAAVLWMEYHLTPECTLSTGLLEPADPEGGCCWNPHCK (UniProt Q9NVM4) | -0.354 | -0.377
8 | PRPF6_O94906_739_KCPHSTPLWLLLSR (UniProt O94906) | -0.167 | -0.0418
9 | PRKDC_P78527_974_LACDVDQVTR (UniProt P78527) | 0.168 | 0.168
10 | PRPF31_Q8WWY3_247_MPACNIMLLGAQR (UniProt Q8WWY3) | -0.0993 | -0.0869
11 | PRKDC_P78527_3187_CFFLSK (UniProt P78527) | -0.115 | -0.189
12 | PRPS2_P11908_165_NCIIVSPDAGGAKR (UniProt P11908) | 0.121 | -0.113
13 | PRMT1_Q99873-3_15_AAAEAANCIMEVSCGQAESSEKPNAEDMTSK (UniProt Q99873) | -0.555 | 0.11

Some of the entries so far, in markdown.

| Row | Target | probe-labelled cysteine peptide fold change (10 µM) | probe-labelled cysteine peptide fold change (50 µM) |
| --- | --- | --- | --- |
| 6 | PRKD2_Q9BZL6_615_HPGIVNLECMFETPEK (UniProt Q9BZL6) | 0.0527 | 0.295 |
| 7 | PRMT7_Q9NVM4_639+640_RPGQSHAAVLWMEYHLTPECTLSTGLLEPADPEGGCCWNPHCK (UniProt Q9NVM4) | -0.354 | -0.377 |
